Literature values, collected in paper PMC3063246, “Corticotropin Releasing Factor-Induced CREB Activation in Striatal Neurons Occurs via a Novel Gβγ Signaling Pathway” (PLoS ONE, 2011).

Tested on: depolarization-induced CREB phosphorylation
Parameters: method as in 3 sources, ref 36 = [36]; PMID 11226322; doi:10.1073/pnas.051634198; 36 Wu GY Deisseroth K Tsien RW 2001 Activity-dependent CREB phosphorylation: convergence of a fast, sensitive calmodulin kinase pathway and a slow, less sensitive mitogen-activated protein kinase path ||| ref [36] (a number printed in a supplementary file, which may have a reference list of its own: not looked up in the article's list) ||| ref [71] (a number printed in a supplementary file, which may have a reference list of its own: not looked up in the article's list)
Settings: 5 mM as printed; cited from earlier work

SMILES: COC(=O)C1=C(C)NC(C)=C(C(=O)OC)C1c1ccccc1[N+](=O)[O-] [nifedipine]
- effect on depolarization-induced pCREB: L-type Calcium Channel (5 mM prevents depolarization-induced pCREB)
